This is an account of results in PubChem BioAssay AID330 (DTP/NCI, 2004).

In the assay the test system is P388 leukemia ip, CD2F1 mice, survival T/C. The assay can be described thus: NCI In Vivo Anticancer Drug Screen. Data for tumor model P388 Leukemia (intraperitoneal) in CD2F1 (CDF1) mice. The settings on record: T/C endpoint: median survival time, higher T/C = longer survival.
Where [1] appears, read: dose: 100.0 mg/kg/injection, schedule: Q01DX005 (ip), vehicle: saline with Tween-80.
[2] abbreviates: dose: 200.0 mg/kg/injection, schedule: Q01DX009 (ip), vehicle: Klucel (hydroxypropylcellulose) (HPC).
Where [3] appears, read: dose: 25.0 mg/kg/injection, schedule: Q01DX005 (ip), vehicle: saline with Tween-80.
Where [4] appears, read: dose: 50.0 mg/kg/injection, schedule: Q01DX005 (ip), vehicle: saline with Tween-80.
The mark [5] stands for this setting: dose: 200.0 mg/kg/injection, schedule: Q01DX005 (ip), vehicle: saline with Tween-80.
Where [6] appears, read: dose: 200.0 mg/kg/injection, schedule: Q01DX009 (ip), vehicle: saline with Tween-80.
[7] abbreviates: dose: 0.15 mg/kg/injection, schedule: Q01DX009 (ip), vehicle: Klucel (hydroxypropylcellulose) (HPC).

The list does not hold the whole screen: it is rich in T/C values a quarter to a half above the control, in often repeated tests (any T/C) and in doses without a T/C. Other doses and runs of a compound stand elsewhere. T/C: endpoint of the treated group in % of that of the vehicle group. Some entries give survivors of the animals treated and no T/C: the source holds a T/C of zero for them, seemingly a mark for toxic or unscored doses. Some survivor counts are full or nearly so, which does not show that the dose was tolerated: the source hardly ever lists a survival T/C far under the control, and the zero likely stands for such cases as well. Survivors were counted at the toxicity check, usually on the fifth day, unless a day is given; later deaths do not show. Schedules are NCI's codes, taken here to give the interval after Q, in days (D) or hours (H), and the number of doses after X. Where survival is the endpoint, the PubChem record calls one and a half times the control and up active, and a quarter to a half above the control has no call in these data; cut-offs in other NCI protocols can differ.

For the compound `Nc1nc2nc3c(nc2c(=O)[nH]1)C(=O)N(c1ccc(C(=O)O)cc1)C3`, the survivor count is, setting by setting: (dose: 50.0 mg/kg/injection, schedule: Q04DX003 (ip), vehicle: saline with Tween-80) 6 of 6; (dose: 100.0 mg/kg/injection, schedule: Q04DX003 (ip), vehicle: saline with Tween-80) 5 of 6; (dose: 200.0 mg/kg/injection, schedule: Q04DX003 (ip), vehicle: saline with Tween-80) 3 of 6.

As to `CCN(CC)CCNc1cc(Nc2ccc([N+](=O)[O-])cc2)ccc1OC`, under setting [1], the survivor count was 5 of 5.

As for `Cc1ccc2c(N(C)C)cc(N(C)C)nc2c1C`, the survivor count under setting [2] is 0 of 6.

Regarding `Cc1ccc(/C=N/NC(=O)C(=O)Nc2ccc(Cl)c([N+](=O)[O-])c2)cc1`, the survivor count reads like this: under setting [3], 6 of 6; under setting [4], 6 of 6; under setting [1], 6 of 6; under setting [5], 6 of 6.

Regarding `Nc1nc(N)c2nc(CN(CCO)c3ccc(C(=O)NC(CCC(=O)O)C(=O)O)cc3)cnc2n1` (stereo not given), the T/C (dose: 0.8 mg/kg/injection, schedule: Q01DX009 (ip), vehicle: Klucel (hydroxypropylcellulose) (HPC)) is 144 % of control. Moreover, the survivor count was 6 of 6 (dose: 8.0 mg/kg/injection, schedule: Q01DX009 (ip), vehicle: Klucel (hydroxypropylcellulose) (HPC)) and 6 of 6 (dose: 16.0 mg/kg/injection, schedule: Q01DX009 (ip), vehicle: Klucel (hydroxypropylcellulose) (HPC)).

In the case of `CC(=O)c1ccc(NC(=O)C#N)cc1`, the survivor count by setting is: (dose: 30.0 mg/kg/injection, schedule: Q01DX005 (ip), vehicle: saline with Tween-80) 0 of 6; (dose: 60.0 mg/kg/injection, schedule: Q01DX005 (ip), vehicle: saline with Tween-80) 0 of 6; (dose: 120.0 mg/kg/injection, schedule: Q01DX005 (ip), vehicle: saline with Tween-80) 0 of 6; (dose: 240.0 mg/kg/injection, schedule: Q01DX005 (ip), vehicle: saline with Tween-80) 0 of 6.

With `CCC(=O)NCC(=O)O`, the survivor count was 6 of 6 (dose: 12.5 mg/kg/injection, schedule: Q01DX009 (ip), vehicle: saline with Tween-80) and 6 of 6 (dose: 25.0 mg/kg/injection, schedule: Q01DX009 (ip), vehicle: saline with Tween-80).

As for `CCN(CC)CCNc1ccc(O)c2sc3ccccc3c(=O)c12`, the survivor count (dose: 50.0 mg/kg/injection, schedule: Q01DX009 (ip), vehicle: saline + alcohol) is listed as 6 of 6; the survivor count (dose: 100.0 mg/kg/injection, schedule: Q01DX009 (ip), vehicle: saline + alcohol) is reported as 3 of 6; the survivor count (dose: 200.0 mg/kg/injection, schedule: Q01DX009 (ip), vehicle: saline + alcohol) was 0 of 6.

For the compound `CN(C)c1ccc(C2(c3ccc(N(C)C)cc3)NNC(=O)c3cc(N(C)C)ccc32)cc1`, the survivor count (dose: 12.5 mg/kg/injection, schedule: Q01DX005 (ip), vehicle: saline with Tween-80) is recorded as 6 of 6; the survivor count under setting [3] was 6 of 6; the survivor count under setting [4] is listed as 6 of 6; the survivor count under setting [1] is 6 of 6; the survivor count under setting [5] is recorded as 6 of 6.

`CC1=C(Cl)C(=N\S(=O)(=O)c2ccccc2)/c2ccccc2/C1=N/S(=O)(=O)c1ccccc1`: the survivor count (dose: 400.0 mg/kg/injection, schedule: Q01DX001 (ip), vehicle: saline with Tween-80) was 0 of 6.

For `Cc1cc(SCC(=O)c2ccc(Br)cc2)cc(C)[o+]1`, the survivor count is 3 of 6 under setting [6] and 6 of 6 (dose: 400.0 mg/kg/injection, schedule: Q04DX003 (ip), vehicle: saline with Tween-80).

Take `CCCCNC(C)(C)C(SS)c1ccc(C(F)(F)F)cc1` (stereo not given): where the note is “dose: 25.0 mg/kg/injection, schedule: Q04DX003 (ip), vehicle: other”, the survivor count is 3 of 6.

`Cc1ccc2[nH]c3c(c2c1)-c1ncncc1CC3`: the survivor count (dose: 400.0 mg/kg/injection, schedule: Q04DX002 (ip), vehicle: Klucel (hydroxypropylcellulose) (HPC)) was 1 of 5.

Consider `CC1=C(C)C(=O)C2=C(OCCO2)C1=O`, for which the survivor count by setting is: (dose: 60.0 mg/kg/injection, schedule: Q01DX005 (ip), vehicle: Klucel (hydroxypropylcellulose) (HPC)) 5 of 6; (dose: 120.0 mg/kg/injection, schedule: Q01DX005 (ip), vehicle: Klucel (hydroxypropylcellulose) (HPC)) 0 of 6; (dose: 240.0 mg/kg/injection, schedule: Q01DX005 (ip), vehicle: Klucel (hydroxypropylcellulose) (HPC)) 0 of 6.

Regarding `NC(=O)CC1OC(=O)Cc2cc3c(c(O)c21)C(=O)c1c(O)cccc1C3=O` (stereo not given), where the note is “dose: 12.0 mg/kg/injection, schedule: Q01DX009 (ip), vehicle: DMSO”, the survivor count is on record as 2 of 6.

For the compound `CN(C)c1cc(-c2ccccc2)oc(=O)c1Cl`, under setting [6], the survivor count is 0 of 6.

With `Cc1cccc2ncc([N+](=O)[O-])n12`, under setting [6], the T/C is 129 % of control and the survivor count is given as 6 of 6. Under “dose: 400.0 mg/kg/injection, schedule: Q01DX009 (ip), vehicle: saline with Tween-80”, the survivor count is 0 of 6.

In the case of `CC(C)(C)C(=O)OC/C=C\COC(=O)c1ccccc1`, under setting [2], the T/C was 125 % of control.

For the compound `C[n+]1c(-c2cccc(-c3ccccc3)c2)c2cc(N)ccc2c2ccccc21`, the T/C by setting is: (dose: 0.78 mg/kg/injection, schedule: Q01DX009 (ip), vehicle: water) 129 % of control; (dose: 1.56 mg/kg/injection, schedule: Q01DX009 (ip), vehicle: water) 129 % of control; (dose: 3.13 mg/kg/injection, schedule: Q01DX009 (ip), vehicle: other) 137 % of control; (dose: 3.13 mg/kg/injection, schedule: Q01DX009 (ip), vehicle: water) 132 % of control; (dose: 6.25 mg/kg/injection, schedule: Q01DX009 (ip), vehicle: other) 134 % of control; (dose: 6.25 mg/kg/injection, schedule: Q01DX009 (ip), vehicle: water) 137 % of control. Further, the survivor count reads like this: (dose: 12.5 mg/kg/injection, schedule: Q01DX009 (ip), vehicle: other) 6 of 6; (dose: 12.5 mg/kg/injection, schedule: Q01DX009 (ip), vehicle: water) 5 of 6; (dose: 25.0 mg/kg/injection, schedule: Q01DX009 (ip), vehicle: other) 5 of 6.

Take `O=NNc1nc(-c2cccnc2)nc2ccccc12`: the survivor count (dose: 20.0 mg/kg/injection, schedule: Q01DX009 (ip), vehicle: water) was 6 of 6.

Take `Cc1c2oc3c(C)c(N)cc(C(=O)NC4C(=O)NC(C(C)C)C(=O)N5CCCC5C(=O)N(C)CC(=O)N(C)C(C(C)C)C(=O)OC4C)c3nc-2c(C(=O)NC2C(=O)NC(C(C)C)C(=O)N3CCCC3C(=O)N(C)CC(=O)N(C)C(C(C)C)C(=O)OC2C)c(N)c1=O` (stereo not given): the T/C is, setting by setting: (dose: 0.04 mg/kg/injection, schedule: Q01DX009 (ip), vehicle: Klucel (hydroxypropylcellulose) (HPC)) 140 % of control; (dose: 0.08 mg/kg/injection, schedule: Q01DX009 (ip), vehicle: Klucel (hydroxypropylcellulose) (HPC)) 130 % of control; under setting [7], 135 % of control. For the same compound, the survivor count reads like this: under setting [7], 6 of 6; (dose: 0.3 mg/kg/injection, schedule: Q01DX009 (ip), vehicle: Klucel (hydroxypropylcellulose) (HPC)) 1 of 6; (dose: 0.6 mg/kg/injection, schedule: Q01DX009 (ip), vehicle: Klucel (hydroxypropylcellulose) (HPC)) 0 of 6.

With `CCC1(CC2CCCN(C)C2)c2ccccc2Sc2ccccc21` (stereo not given), the survivor count is on record as 0 of 6 (dose: 100.0 mg/kg/injection, schedule: Q01DX005 (ip), vehicle: saline) and 0 of 6 (dose: 200.0 mg/kg/injection, schedule: Q01DX005 (ip), vehicle: saline).

`O=C1NC(=O)C2(F)CC3(CCCCC3)C2N1` (stereo not given): the survivor count (dose: 25.0 mg/kg/injection, schedule: Q01DX001 (ip), vehicle: Klucel (hydroxypropylcellulose) (HPC)) was 2 of 6 and the survivor count (dose: 50.0 mg/kg/injection, schedule: Q01DX001 (ip), vehicle: Klucel (hydroxypropylcellulose) (HPC)) is 0 of 6.
